The target of the assay is HA-CABIN1 (UniProt Q9Y6J0). Briefly: co-IP; transfected HEK293T cells lysed in IP150 buffer; Flag- and HA-tagged proteins precipitated with Anti-FLAG M2 Affinity Gel or Anti-HA Agarose; western blot.

Protein sequences, listed by entry. Tags and fused reporters are not part of them.
UniProt Q9Y6J0: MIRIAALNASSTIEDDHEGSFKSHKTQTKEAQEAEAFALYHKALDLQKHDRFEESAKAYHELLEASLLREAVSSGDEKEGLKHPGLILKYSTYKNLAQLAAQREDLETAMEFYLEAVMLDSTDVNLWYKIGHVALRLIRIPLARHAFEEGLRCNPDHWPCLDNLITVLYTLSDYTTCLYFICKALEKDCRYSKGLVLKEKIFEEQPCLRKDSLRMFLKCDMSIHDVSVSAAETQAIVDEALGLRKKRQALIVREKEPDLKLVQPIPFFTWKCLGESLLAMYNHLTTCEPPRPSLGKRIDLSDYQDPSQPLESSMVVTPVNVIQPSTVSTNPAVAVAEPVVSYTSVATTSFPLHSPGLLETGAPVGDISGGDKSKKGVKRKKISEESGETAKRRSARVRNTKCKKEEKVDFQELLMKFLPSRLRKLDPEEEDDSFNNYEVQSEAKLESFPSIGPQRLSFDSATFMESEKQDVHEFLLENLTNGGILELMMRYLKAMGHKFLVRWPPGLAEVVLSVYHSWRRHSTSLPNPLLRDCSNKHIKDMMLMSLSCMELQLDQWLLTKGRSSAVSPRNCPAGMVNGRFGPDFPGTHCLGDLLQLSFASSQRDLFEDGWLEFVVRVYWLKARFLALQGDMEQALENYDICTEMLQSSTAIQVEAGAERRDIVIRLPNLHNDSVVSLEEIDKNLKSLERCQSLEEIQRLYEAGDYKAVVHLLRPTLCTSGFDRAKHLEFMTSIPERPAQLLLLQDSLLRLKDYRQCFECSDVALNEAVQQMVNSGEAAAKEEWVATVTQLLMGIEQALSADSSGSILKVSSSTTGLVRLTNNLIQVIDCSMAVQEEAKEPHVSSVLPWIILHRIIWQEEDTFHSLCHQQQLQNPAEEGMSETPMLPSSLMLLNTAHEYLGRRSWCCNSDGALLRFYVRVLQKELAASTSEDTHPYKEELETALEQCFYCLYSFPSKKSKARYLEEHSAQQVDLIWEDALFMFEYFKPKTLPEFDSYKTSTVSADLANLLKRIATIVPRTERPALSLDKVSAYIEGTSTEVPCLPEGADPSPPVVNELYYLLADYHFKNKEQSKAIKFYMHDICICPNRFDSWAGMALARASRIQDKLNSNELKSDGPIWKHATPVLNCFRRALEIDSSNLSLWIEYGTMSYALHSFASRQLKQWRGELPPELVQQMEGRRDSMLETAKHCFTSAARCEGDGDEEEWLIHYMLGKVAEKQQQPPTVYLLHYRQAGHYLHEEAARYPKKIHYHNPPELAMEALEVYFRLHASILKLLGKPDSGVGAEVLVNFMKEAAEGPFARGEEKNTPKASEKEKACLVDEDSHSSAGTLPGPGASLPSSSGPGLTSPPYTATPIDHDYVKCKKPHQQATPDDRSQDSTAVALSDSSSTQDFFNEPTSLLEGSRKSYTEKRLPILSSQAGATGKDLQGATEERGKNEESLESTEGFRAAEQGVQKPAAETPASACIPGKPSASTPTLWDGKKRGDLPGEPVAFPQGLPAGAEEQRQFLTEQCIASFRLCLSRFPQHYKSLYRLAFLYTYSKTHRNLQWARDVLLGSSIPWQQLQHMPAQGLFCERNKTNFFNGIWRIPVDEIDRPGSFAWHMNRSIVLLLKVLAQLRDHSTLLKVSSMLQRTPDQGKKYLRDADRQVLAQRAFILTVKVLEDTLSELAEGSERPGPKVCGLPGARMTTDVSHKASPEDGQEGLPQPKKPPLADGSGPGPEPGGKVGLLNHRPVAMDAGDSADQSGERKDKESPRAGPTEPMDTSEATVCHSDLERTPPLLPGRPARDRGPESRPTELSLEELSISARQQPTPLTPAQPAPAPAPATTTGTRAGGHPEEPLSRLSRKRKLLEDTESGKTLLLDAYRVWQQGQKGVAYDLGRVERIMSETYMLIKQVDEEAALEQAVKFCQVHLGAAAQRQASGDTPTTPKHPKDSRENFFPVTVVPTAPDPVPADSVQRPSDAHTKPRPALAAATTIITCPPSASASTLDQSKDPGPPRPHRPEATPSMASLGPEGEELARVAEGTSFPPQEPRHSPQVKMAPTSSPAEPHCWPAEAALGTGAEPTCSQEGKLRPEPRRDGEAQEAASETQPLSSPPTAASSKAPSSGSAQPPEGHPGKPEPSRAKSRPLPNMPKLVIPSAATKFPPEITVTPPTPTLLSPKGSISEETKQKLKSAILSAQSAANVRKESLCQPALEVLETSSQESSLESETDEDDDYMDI
UniProt Q16539: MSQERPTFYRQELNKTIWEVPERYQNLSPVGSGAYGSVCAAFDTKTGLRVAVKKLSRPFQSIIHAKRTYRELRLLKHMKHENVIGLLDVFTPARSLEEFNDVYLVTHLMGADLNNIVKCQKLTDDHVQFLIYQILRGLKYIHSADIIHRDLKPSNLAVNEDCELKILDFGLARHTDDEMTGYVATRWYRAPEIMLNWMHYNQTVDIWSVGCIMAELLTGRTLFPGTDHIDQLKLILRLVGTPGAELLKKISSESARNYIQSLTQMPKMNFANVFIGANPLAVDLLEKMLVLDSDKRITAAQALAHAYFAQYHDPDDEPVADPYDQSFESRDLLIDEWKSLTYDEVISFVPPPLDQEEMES

Results are given in words; binding and its absence hold for the method and conditions named. In cells and extracts the contact can be indirect. Some binding calls cover weakened binding; strength is not graded here.

Drawing on PMC9166766, this text covers binding for 1 substance.

Flag-p38α (from UniProt Q16539 1-360): the binding entry is given as “binds”.
